Source: PubChem BioAssay AID504834 (National Center for Advancing Translational Sciences (NCATS), 2011)
The campaign covered roughly 320,000 compounds. About 22,000 (6.9%) were called active. The shares of active, inactive and inconclusive entries below differ from those in the screen. The call rests on the fitted dose curve; in most records, active means well fitted inhibition curve with a large enough effect; inconclusive means small, poorly fitted or top-dose-only effect, or another doubt; inactive means no such curve, though single readings can be large or run the other way. Where the call is inconclusive, the potency comes from a doubtful curve fit.
Potency means the concentration at half of the fitted maximal effect.

Experiment: Primary qHTS for delayed death inhibitors of the malarial parasite plastid, 96 hour incubation
Details: P. falciparum luciferase reporter growth; series mostly up to 28.7 µM
In short: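 Parasite growth measured via integrated firefly luciferase reporter in P. falciparum. Infected erythrocytes at 2% hematocrit, 0.05% parasitemia final were treated 96 hours at 37 C under 5% CO2, and luminescence was read.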
In the case of O=C(O)c1ccccc1C(=O)OCc1c(-c2ccccc2)ncc2ccccc12, the Potency was inconclusive: 5.22 µM [inhibitor, single point]. With COc1ccc(Cl)cc1NC(=S)NCCO the Potency was inconclusive: 3.7 µM [inhibitor, single point]. For O=C(N/N=C/c1ccc(O)cc1O)c1ccncc1, the Potency was active: 11.7 µM. In the case of COCCN(C(=O)COC(=O)CCc1ccccc1)c1c(N)n(Cc2ccccc2)c(=O)[nH]c1=O, the Potency was “inactive”. In the case of CC(C)(CNC(=O)C1c2ccccc2-c2ccccc21)N1CCOCC1, the Potency was “inactive”. For CC(CN1CCOCC1)OC(=O)c1ccc(Br)cc1 (stereo unspecified), the Potency was inconclusive: 11.7 µM [inhibitor, partial curve, poor fit]. In the case of N=C1SCC(=O)N1Cc1ccccc1, the Potency was inconclusive: 18.5 µM [inhibitor, single point]. With Cc1noc(/C=C/N(C)C)c1S(=O)(=O)N1CCCC(C(=O)Nc2ccccc2F)C1 (stereo unspecified) the Potency was inconclusive: 11.7 µM [inhibitor, single point]. For Nc1ccc(C(=O)N2CCN(S(=O)(=O)c3ccc(Cl)s3)CC2)cc1[N+](=O)[O-], the Potency was inconclusive: 2.33 µM [inhibitor, partial curve, poor fit]. With CCN(CC)S(=O)(=O)c1ccc(N2CCOCC2)c(NC(=O)CCOc2ccccc2)c1 the Potency was inconclusive: 7.38 µM [inhibitor, partial curve, poor fit]. For Cc1ccc([N+](=O)[O-])cc1N=C(c1cccc([N+](=O)[O-])c1)N1CCOCC1, the Potency was inconclusive: 0.0657 µM [inhibitor, full curve, poor fit]. For Oc1ccc(-c2cn3cc(C(F)(F)F)ccc3n2)cc1, the Potency was “inactive”. In the case of COCCNC(=O)c1ccc(CS(=O)(=O)c2ccc(Cl)cc2)o1, the Potency was inconclusive: 3.29 µM [inhibitor, single point]. For CNC(=S)N(Cc1ccc(OC)cc1)Cc1cc2ccc(C)cc2[nH]c1=O, the Potency was inconclusive: 18.5 µM [inhibitor, single point]. With COc1ccc(-c2cn[nH]c2-c2ccc(OCc3ccc([N+](=O)[O-])cc3)cc2O)cc1OC the Potency was active: 9.28 µM. With Cc1ccc(N(CC(=O)NC2CCCC2)C(=O)CNC(=O)c2cccs2)c(C)c1 the Potency was inconclusive: 11.7 µM [inhibitor, single point]. In the case of COc1ccc(CCNC(=O)C2CCN(C(=O)c3ccccc3)CC2)cc1, the Potency was inconclusive: 18.5 µM [inhibitor, single point]. With CCN(CC)c1cc(C(F)(F)F)nc(-c2ccccn2)n1 the Potency was inconclusive: 10.4 µM [inhibitor, single point]. With CN(C)c1nc(NCc2ccccc2)nc(N/N=C/c2ccc(Br)cc2)n1 the Potency was inconclusive: 16.5 µM [inhibitor, single point]. With O=c1[nH]c(CN2CCN(c3ncccn3)CC2)nc2c(Br)cc(Br)cc12 the Potency was inconclusive: 18.5 µM [inhibitor, single point]. With Cn1c(=O)[nH]c(=O)c2c1nc1n2CC(COc2ccc3ccccc3c2)O1 (stereo unspecified) the Potency was “inactive”. With COc1ccc(CCNC(=O)C(=O)NCc2ccccn2)cc1 the Potency was inconclusive: 18.5 µM [inhibitor, single point]. With COc1cc2cc(C(c3nnnn3C(C)(C)C)N3CCc4ccccc4C3)c(=O)[nH]c2cc1OC (stereo unspecified) the Potency was inconclusive: 10.4 µM [inhibitor, single point]. In the case of Cc1cccc(C)c1NC(=O)CNCC(=O)Nc1c(C)cccc1C, the Potency was “inactive”. For COc1ccc(S(=O)(=O)N2CCc3ccccc32)cc1C(=O)OCC(=O)c1c(N)n(C)c(=O)n(C)c1=O, the Potency was “inactive”. With O=C1/C(=C/c2cccc3ccccc23)CCCc2ccccc21 the Potency was “inactive”. With Cc1nc2sc(-c3ccccc3)cc2c(=O)n1-n1cccc1 the Potency was “inactive”. With CC(C)(C)NC(=O)Cn1nnc(-c2ccc(OCc3c(F)cccc3Cl)cc2)n1 the Potency was inconclusive: 16.5 µM [inhibitor, single point]. In the case of [O-]/C(=C(\C(=S)Nc1cccc2ccccc12)[n+]1ccccc1)c1cccs1, the Potency was inconclusive: 18.5 µM [inhibitor, single point]. With Cc1ccccc1S(=O)(=O)c1cc2ccccc2nc1N the Potency was inconclusive: 3.29 µM [inhibitor, full curve]. With O=c1c(CN2CCN(Cc3ccccc3F)C(CCO)C2)coc2ccccc12 (stereo unspecified) the Potency was inconclusive: 4.15 µM [inhibitor, single point]. With O=C(CCC(=O)N(CC(=O)NC1CCCCC1)Cc1cccs1)Nc1ccccn1 the Potency was “inactive”. With COc1ccc(/C=C2\Oc3cc(OCC(=O)N4CCC(C(=O)O)CC4)ccc3C2=O)c(OC)c1 the Potency was inconclusive: 18.5 µM [inhibitor, single point]. For O=C(NCC1OCCc2ccccc21)c1ccco1 (stereo unspecified), the Potency was “inactive”. In the case of Cc1nn(C)cc1-c1csc(N)n1, the Potency was inconclusive: 18.5 µM [inhibitor, single point]. With O=C(c1ccc(Br)c([N+](=O)[O-])c1)N1CCN(Cc2ccccc2)CC1 the Potency was “inactive”. With Cc1cc(=S)cc(C)n1CCO the Potency was “inactive”. With O=C1CC(N2CCc3ccccc32)C(=O)N1c1ccc(F)cc1 (stereo unspecified) the Potency was inconclusive: 13.1 µM [inhibitor, single point]. With CN1CCN(CC(=O)NN(Cc2ccccc2)c2ccccc2)CC1 the Potency was “inactive”. In the case of O=C(c1ccccc1)N1CCN(c2ncnc3c2cnn3-c2ccccc2)CC1, the Potency was “inactive”. With CC1CCC(NC(=O)C2(C)CCC(=O)N2Cc2cccnc2)CC1 (stereo unspecified) the Potency was “inactive”. With CCOC(=O)c1c(NC(=O)COC)sc(C(C)=O)c1C the Potency was “inactive”. With CCN(C(=O)CCN1C(=O)S/C(=C\c2ccccc2)C1=O)C1CCS(=O)(=O)C1 (stereo unspecified) the Potency was inconclusive: 11.7 µM [inhibitor, single point]. For COc1ccc(NC(=O)CCCC(=O)NCCc2ccc(OC)c(OC)c2)cc1, the Potency was inconclusive: 10.4 µM [inhibitor, single point]. In the case of COc1ccc(-c2cc(C(=O)Nc3sc4c(c3C#N)CCCC4)c3ccccc3n2)cc1, the Potency was “inactive”. In the case of O=S(=O)(Nc1cccc2cccnc12)c1ccc(S(=O)(=O)N2CCCC2)cc1, the Potency was inconclusive: 5.86 µM [inhibitor, partial curve, poor fit].
